These are literature values, as cited in patent publication US9655849B2, “Solid particulate compositions comprising coenzyme Q10” (Particle Dynamics International, LLC, priority 2011, dated 2017).

The conditions of this series: also printed as 2-3 mg/L; cited from earlier work.

For the compound `COC1=C(OC)C(=O)C(C/C=C(\C)CC/C=C(\C)CC/C=C(\C)CC/C=C(\C)CC/C=C(\C)CC/C=C(\C)CC/C=C(\C)CC/C=C(\C)CC/C=C(\C)CCC=C(C)C)=C(C)C1=O` [coenzyme Q10], the water solubility is 2-3 ppm.
